Measurements from PMC8675914.
Results are given in words; binding and its absence hold for the method and conditions named. In cells and extracts the contact can be indirect. Some entries that bind do so weakly or less than the wild type.

Sequences of proteins named here, by UniProt entry; tags and fusion partners are left off. A change or cut given only in a name is not applied to a line headed by its entry. A line that says so, or that is headed by a name, gives the form on record, which may keep a tag or linker. Residues count along the entry.
UniProt Q15418: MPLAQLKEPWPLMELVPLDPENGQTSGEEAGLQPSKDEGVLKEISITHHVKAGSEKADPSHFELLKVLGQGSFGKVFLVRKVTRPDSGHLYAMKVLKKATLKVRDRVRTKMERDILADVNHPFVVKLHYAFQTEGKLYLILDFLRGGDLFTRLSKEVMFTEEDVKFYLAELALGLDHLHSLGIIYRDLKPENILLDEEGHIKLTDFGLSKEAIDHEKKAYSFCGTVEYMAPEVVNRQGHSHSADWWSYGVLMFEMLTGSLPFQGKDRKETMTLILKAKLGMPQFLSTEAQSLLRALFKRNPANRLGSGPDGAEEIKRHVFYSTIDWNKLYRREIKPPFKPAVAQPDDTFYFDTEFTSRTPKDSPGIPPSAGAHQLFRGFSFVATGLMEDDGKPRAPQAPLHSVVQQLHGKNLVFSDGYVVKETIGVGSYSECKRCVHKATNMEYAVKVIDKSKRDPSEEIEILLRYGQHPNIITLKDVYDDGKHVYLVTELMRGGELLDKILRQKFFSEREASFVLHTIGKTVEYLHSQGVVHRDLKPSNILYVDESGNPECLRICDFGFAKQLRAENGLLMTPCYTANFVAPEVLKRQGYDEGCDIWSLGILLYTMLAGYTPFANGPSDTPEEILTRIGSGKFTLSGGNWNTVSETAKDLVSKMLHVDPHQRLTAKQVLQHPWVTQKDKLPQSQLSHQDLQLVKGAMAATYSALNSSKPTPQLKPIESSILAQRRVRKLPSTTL
RSK1^K110/335/421R SUMOylation deficient mutant (Q15418, form named): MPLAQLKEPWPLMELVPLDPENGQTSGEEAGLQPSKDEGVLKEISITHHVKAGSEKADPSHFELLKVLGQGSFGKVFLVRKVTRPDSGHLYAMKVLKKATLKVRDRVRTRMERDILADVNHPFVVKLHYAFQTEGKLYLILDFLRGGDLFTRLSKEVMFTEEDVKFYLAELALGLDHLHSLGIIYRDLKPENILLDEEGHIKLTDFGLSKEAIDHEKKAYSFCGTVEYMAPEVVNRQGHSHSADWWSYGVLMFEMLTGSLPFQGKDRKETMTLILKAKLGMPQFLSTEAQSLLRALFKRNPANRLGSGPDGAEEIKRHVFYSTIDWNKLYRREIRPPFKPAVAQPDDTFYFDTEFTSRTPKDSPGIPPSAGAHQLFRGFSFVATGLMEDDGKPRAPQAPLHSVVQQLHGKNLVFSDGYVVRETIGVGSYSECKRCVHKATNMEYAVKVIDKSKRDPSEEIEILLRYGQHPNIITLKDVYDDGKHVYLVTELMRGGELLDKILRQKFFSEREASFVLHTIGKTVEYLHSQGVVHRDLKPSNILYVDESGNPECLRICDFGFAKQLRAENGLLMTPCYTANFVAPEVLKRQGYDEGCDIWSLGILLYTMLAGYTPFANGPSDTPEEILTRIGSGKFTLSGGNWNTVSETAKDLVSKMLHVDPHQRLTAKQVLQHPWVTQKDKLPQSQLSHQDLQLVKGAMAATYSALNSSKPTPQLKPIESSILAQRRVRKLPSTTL
UniProt F5HDE4: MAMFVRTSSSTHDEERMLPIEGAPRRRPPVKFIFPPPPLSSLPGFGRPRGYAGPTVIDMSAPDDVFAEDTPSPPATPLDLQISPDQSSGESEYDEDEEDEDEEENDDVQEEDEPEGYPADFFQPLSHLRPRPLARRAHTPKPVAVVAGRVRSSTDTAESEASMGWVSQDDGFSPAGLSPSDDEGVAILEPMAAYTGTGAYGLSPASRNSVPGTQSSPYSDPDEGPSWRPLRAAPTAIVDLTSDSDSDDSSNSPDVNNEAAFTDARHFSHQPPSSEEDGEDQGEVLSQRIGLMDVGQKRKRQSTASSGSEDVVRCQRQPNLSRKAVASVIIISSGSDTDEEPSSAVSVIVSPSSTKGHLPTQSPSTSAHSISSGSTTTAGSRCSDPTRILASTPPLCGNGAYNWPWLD
UniProt P63165, residues 1-97: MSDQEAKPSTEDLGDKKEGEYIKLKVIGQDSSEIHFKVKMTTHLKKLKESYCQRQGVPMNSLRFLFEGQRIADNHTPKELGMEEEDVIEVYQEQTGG

How the values were obtained:
[1] = biological target: RSK1^K110/335/421R SUMOylation deficient mutant (human) (UniProt Q15418); assay: co-IP
[2] = biological target: wild-type RSK1 (p90 ribosomal S6 kinase 1) (human) (UniProt Q15418); assay: co-IP
[3] = biological target: GST-tagged eIF4B SIM^WT peptide (human); assay: pull-down; GST fusion on Glutathione Sepharose 4B incubated with HEK293T whole cell lysate (20 mM Tris-HCl pH 7.5, 0.5% NP-40, 150 mM NaCl) for 2 h at 4 °C; immunoblot; only the target purified

Substance | binding [1] | binding [2] | binding [3]
KSHV ORF45 (from UniProt F5HDE4 1-407) | binds | binds | 
endogenous RSK1 (from UniProt Q15418 1-735) (enzyme) |  |  | binds
endogenous SUMO1 (from UniProt P63165 1-97) |  |  | binds
